# The list shows a part of the results. Repeats are few or missing, and single values can be far off.
# Test system: Saccharomyces cerevisiae BY4743
# Test: growth (OD600) with compound + IPBC relative to untreated control; higher = less growth inhibition
# Conditions: compound concentration: 133 uM; IPBC concentration: 0.5 ug/ml; 20 h
# Procedure: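 NMCCC compounds (133 uM) combined with IPBC (0.5 ug/ml) against Saccharomyces cerevisiae BY4743 in YPD, 96-well plates. Growth was read as OD600 at 20 h and expressed as % of the untreated control. Single pass.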
row,SMILES,growth [%]
1,Cc1ccc(-c2ncccc2C(=O)Nc2cccc(F)c2)s1 + CCCCNC(=O)OCC#CI [3-iodo-2-propynyl butylcarbamate (IPBC)],98.3
2,Cc1nn(CC(=O)Nc2ccccc2C(F)(F)F)c2ccccc12 + CCCCNC(=O)OCC#CI [3-iodo-2-propynyl butylcarbamate (IPBC)],105
3,NC(=O)c1ccc(CSc2nncn2CCc2cccs2)cc1 + CCCCNC(=O)OCC#CI [3-iodo-2-propynyl butylcarbamate (IPBC)],93.3
4,CN(c1ccccc1)S(=O)(=O)c1ccccc1C(=O)OCC(=O)c1ccc(Cl)s1 + CCCCNC(=O)OCC#CI [3-iodo-2-propynyl butylcarbamate (IPBC)],95.1
5,CNc1nc(-c2ccc(OC(F)F)c(OC)c2)cs1 + CCCCNC(=O)OCC#CI [3-iodo-2-propynyl butylcarbamate (IPBC)],98.3
6,CCOC(=O)\C1=C(/C)NC(=O)NC1C2=C(C)SC(=C2)C (stereo not drawn) + CCCCNC(=O)OCC#CI [3-iodo-2-propynyl butylcarbamate (IPBC)],97.7
7,COc1ccc(NC(C)=O)cc1NC(=O)CN(C)Cc1ccc(C(C)(C)C)cc1 + CCCCNC(=O)OCC#CI [3-iodo-2-propynyl butylcarbamate (IPBC)],102
8,COC1=CC=C(CCC2CCN(CC2)CN3\C=C(Br)/C=C\C3=O)C=C1 + CCCCNC(=O)OCC#CI [3-iodo-2-propynyl butylcarbamate (IPBC)],84.3
